Here are results for five molecules from PMC8834516.

The target of the experiment is T1, Transglutaminase-2 (mouse (endogenous in mouse brain)) (UniProt P21981).
T1 sequence: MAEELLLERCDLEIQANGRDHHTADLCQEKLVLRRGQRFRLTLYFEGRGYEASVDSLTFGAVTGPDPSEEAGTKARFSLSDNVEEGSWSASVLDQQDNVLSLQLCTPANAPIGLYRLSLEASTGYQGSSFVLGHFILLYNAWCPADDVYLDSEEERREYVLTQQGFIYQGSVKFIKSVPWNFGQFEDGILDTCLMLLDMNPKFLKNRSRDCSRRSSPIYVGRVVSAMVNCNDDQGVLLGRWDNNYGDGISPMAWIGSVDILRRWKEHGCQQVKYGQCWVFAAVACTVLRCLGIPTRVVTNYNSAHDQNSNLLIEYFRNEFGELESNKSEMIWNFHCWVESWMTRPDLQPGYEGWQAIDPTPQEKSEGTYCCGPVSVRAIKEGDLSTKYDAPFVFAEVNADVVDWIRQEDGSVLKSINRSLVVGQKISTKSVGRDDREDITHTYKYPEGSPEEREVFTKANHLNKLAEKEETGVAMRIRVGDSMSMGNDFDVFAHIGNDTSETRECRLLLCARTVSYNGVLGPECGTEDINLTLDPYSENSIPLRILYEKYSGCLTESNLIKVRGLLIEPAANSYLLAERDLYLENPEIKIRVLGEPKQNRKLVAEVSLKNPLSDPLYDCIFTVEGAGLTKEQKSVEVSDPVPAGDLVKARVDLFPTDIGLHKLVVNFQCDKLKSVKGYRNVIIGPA
Put plainly: affinity purification with mass spectrometry; TG2 immunoprecipitated from total brain homogenates of 18-month-old WT and APP23 mice with anti-TG2 antibody IA12 crosslinked to protein A/G magnetic beads, 22 h at 4 °C; IP lysis buffer 25 mM Tris pH 7.4, 150 mM NaCl, 1 mM EDTA, 1% NP40, 5% glycerol; on-bead trypsin digest, SWATH MS; TG2−/− cohorts as background, z-test p ≤ 0.05, n = 5 per cohort.

No constants are given. Whether binding was seen depends on the method and setting. Binding seen in cells or lysates may run through a third protein. These calls come from enrichment with a bait or labelling near it, and not all partners need be listed. Sequences can lack the tags named with a protein.

B1: Glycine—tRNA ligase (protein, UniProt Q9CZD3 34-729)
chain: LSAPAQPAASRSSMDSAEELLAPLRLAVRQQGDFVRKLKEDKAPQVDVDRAVAELKARKRVLEAKELALQPKDDIVDRAKMEDTLKRRFFYDQAFAIYGGVSGLYDFGPVGCALKNNIIQAWRQHFIQEEQILEIDCTMLTPEPVLKTSGHVDKFADFMVKDVKNGECFRADHLLKAHLQKLMSDKKCSAEKKSEMESVLAQLDNYGQQELADLFVNYNVKSPTTGNDLSPPVPFNLMFQTFIGPGGNMPGYLRPETAQGIFLNFKRLLEFNQGKLPFAAAQIGNSFRNEISPRSGLIRVREFTMAEIEHFVDPTEKDHPKFQSVADLCLYLYSAKAQVTGQSARKMRLGDAVEQGVINNSVLGYFIGRIYLYLTKVGISPDKLRFRQHMENEMAHYACDCWDAESKTSYGWIEIVGCADRSCYDLSCHARATKVPLVAEKPLKEPKTVNVVQFEPNKGAVGKAYKKDAKLVLEYLSACDECYISEMELLLSEKGEFTIETEGKTFQLTKDMVSVKRFQKTLHVEEVVPSVIEPSFGLGRIMYTILEHTFHVREGDEQRTFFSFPAVVAPFKCSVLPLSQNQEFMPFVKELSEALTRNGVSHKVDDSSGSIGRRYARTDEIGVAFGITIDFDTVNKTPHTATLRDRDSMRQIRAEVSELPNVVRDLANGNITWADVEARYPLFEGQETGKKETVEE
For B1, the binding result is “binds”.

B2: Ras-related protein Rab-21 (protein, UniProt P35282 1-222)
chain: MAAAGGGAAAAAGRAYSFKVVLLGEGCVGKTSLVLRYCENKFNDKHITTLQASFLTKKLNIGGKRVNLAIWDTAGQERFHALGPIYYRDSNGAILVYDVTDEDSFQKVKNWVKELRKMLGNEICLCIVGNKIDLEKERHVSIQEAESYAESVGAKHYHTSAKQNKGIEELFLDLCKRMIETAQVDERAKGNGSSQAGAARRGVQIIDDEPQAQSSGGCCSSG
With B2, the binding entry is on record as “binds”.

B3: Wiskott-Aldrich syndrome protein family member 1 (protein, UniProt Q8R5H6 1-559)
chain: MPLVKRNIDPRHLCHTALPRGIKNELECVTNISLANIIRQLSSLSKYAEDIFGELFNEAHSFSFRVNSLQERVDRLSVSVTQLDPKEEELSLQDITMRKAFRSSTIQDQQLFDRKTLPIPLQETYDVCEQPPPLNILTPYRDDGKEGLKFYTNPSYFFDLWKEKMLQDTEDKRKEKRKQKQKNLDRPHEPEKVPRAPHDRRREWQKLAQGPELAEDDADLLHKHIEVANGPASHYETRPQTYVDHMDGSYSLSALPFSQMSELLTRAEERVLVRPHEPPPPPPMHGAGDAKPTPTCISSATGLIENRPQSPAAGRTPVFVSPTPPPPPPPLPSALSTSSLRASMTSTPPPPVPPPPPPPATALQAPAVPPPPAPLQIAPGVLHPAPPPIAPPLVQPSPPVARAAPVCETVPVHPLPQGEVQGLPPPPPPPPLPPPGIRPSSPVAVAALAHPPSGLHPAPSTAPGPHAPLMPPSPPSQVLPASEPKRHPSTLPVISDARSVLLEAIRKGIQLRKVEEQREQEAKHERIENDVATILSRRIAVEYSDSEDDSEFDEVDWLE
Consider B3, for which the binding entry is recorded as “binds”.

B4: UDP-N-acetylglucosamine—peptide N-acetylglucosaminyltransferase 110 kDa subunit (protein, UniProt Q8CGY8 1-1046)
chain: MASSVGNVADSTEPTKRMLSFQGLAELAHREYQAGDFEAAERHCMQLWRQEPDNTGVLLLLSSIHFQCRRLDRSAHFSTLAIKQNPLLAEAYSNLGNVYKERGQLQEAIEHYRHALRLKPDFIDGYINLAAALVAAGDMEGAVQAYVSALQYNPDLYCVRSDLGNLLKALGRLEEAKACYLKAIETQPNFAVAWSNLGCVFNAQGEIWLAIHHFEKAVTLDPNFLDAYINLGNVLKEARIFDRAVAAYLRALSLSPNHAVVHGNLACVYYEQGLIDLAIDTYRRAIELQPHFPDAYCNLANALKEKGSVAEAEDCYNTALRLCPTHADSLNNLANIKREQGNIEEAVRLYRKALEVFPEFAAAHSNLASVLQQQGKLQEALMHYKEAIRISPTFADAYSNMGNTLKEMQDVQGALQCYTRAIQINPAFADAHSNLASIHKDSGNIPEAIASYRTALKLKPDFPDAYCNLAHCLQIVCDWTDYDERMKKLVSIVAEQLEKNRLPSVHPHHSMLYPLSHGFRKAIAERHGNLCLDKINVLHKPPYEHPKDLKLSDGRLRVGYVSSDFGNHPTSHLMQSIPGMHNPDKFEVFCYALSPDDGTNFRVKVMAEANHFIDLSQIPCNGKAADRIHQDGIHILVNMNGYTKGARNELFALRPAPIQAMWLGYPGTSGALFMDYIITDQETSPAEVAEQYSEKLAYMPHTFFIGDHANMFPHLKKKAVIDFKSNGHIYDNRIVLNGIDLKAFLDSLPDVKIVKMKCPDGGDNPDSSNTALNMPVIPMNTIAEAVIEMINRGQIQITINGFSISNGLATTQINNKAATGEEVPRTIIVTTRSQYGLPEDAIVYCNFNQLYKIDPSTLQMWANILKRVPNSVLWLLRFPAVGEPNIQQYAQNMGLPQNRIIFSPVAPKEEHVRRGQLADVCLDTPLCNGHTTGMDVLWAGTPMVTMPGETLASRVAASQLTCLGCLELIAKSRQEYEDIAVKLGTDLEYLKKIRGKVWKQRISSPLFNTKQYTMELERLYLQMWEHYAAGNKPDHMIKPVEVTESA
On to B4, for which the binding entry was “binds”.

B5: Active breakpoint cluster region-related protein (protein, UniProt Q5SSL4 1-859)
chain: MEPLSHRGLPRLSWIDTLYSNFSYGAEDYDAEGHEEQKGPPEGSETMPYIDESPTMSPQLSARSQGGGDSVSPTPPEGLAPGVEAGKGLEMRKLVLSGFLASEEIYINQLEALLLPMKPLKATATTSQPVLTIQQIETIFYKIQDIYEIHKEFYDNLCPKVQQWDSQVTMGHLFQKLASQLGVYKAFVDNYKVALETAEKCSQSNNQFQKISEELKVKGPKDSKDSHTSVTMEALLYKPIDRVTRSTLVLHDLLKHTPVDHPDYPLLQDALRISQNFLSSINEDIDPRRTAVTTPKGETRQLVKDGFLVEMSESSRKLRHVFLFTDVLLCAKLKKTSAGKHQQYDCKWYIPLADLVFPSPEESEASPQVHPFPDHELEDMKTKISALKSEIQKEKANKGQSRAIERLKKKMFENEFLLLLNSPTIPFRIHNRNGKSYLFLLSSDYERSEWREAIQKLQKKDLQAFVLSSVELQVLTGSCFKLRTVHNIPVTSNKDDDESPGLYGFLHVIVHSAKGFKQSANLYCTLEVDSFGYFVSKAKTRVFRDTTEPKWDEEFEIELEGSQSLRILCYEKCYDKTKVNKDNNEIVDKIMGKGQIQLDPQTVESKNWHTDVIEMNGIKVEFSMKFTSRDMSLKRTPSKKQTGVFGVKISVVTKRERSKVPYIVRQCIEEVEKRGIEEVGIYRISGVATDIQALKAVFDANNKDILLMLSDMDINAIAGTLKLYFRELPEPLLTDRLYPAFMEGIALSDPAAKENCMMHLLRSLPDPNLITFLFLLEHLKRVAEKEPINKMSLHNLATVFGPTLLRPSEVESKAHLTSAADIWSHDVMAQVQVLLYYLQHPPISFAELKRNTLYFSTDV
Regarding B5, the binding result was “binds”.
